Data as given in PubChem BioAssay AID686937 (Drosophila RNAi Screening Center, 2013)

- Screen: 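Genes in the fly needed for secretion of protein constitutively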 (primary screen)
- System: Drosophila S2 cells expressing secreted horseradish peroxidase
- Knock-down reagent: long dsRNA against Drosophila genes
- Time to read-out: about 5.5 days (5 days dsRNA, then 12 h reporter induction)
- Challenge: reporter expression induced after 5 days of dsRNA, read 12 h later; inducer not stated
- Measurement: 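Chemiluminescent measurement of peroxidase in the medium 12 h after reporter induction, following 5 days of dsRNA, given as a z-score per plate; higher means more secretion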
- Reading the numbers: z-score: higher = more reporter secreted into medium
The screen tested about 23,000 reagents; below is a random part of those with a known target gene and a result. 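Reduced-secretion tags in replicate 1 do not always agree with the z-scores; no criterion for assigning the tags was given.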 A plus sign joins genes that one reagent is predicted to hit. Not all columns of the deposit are shown. No sequences are given here. Not stated in the record: the amount of reagent.

gene knocked down	DRSC id	z-score, replicate 1	z-score, replicate 2	z-score, replicate 3	z-score, replicate 4
CG6191	DRSC05938	0.3	0.57		
CG10431	DRSC02055	0.18	0.32		
CG15422	DRSC00436	0.1	0.25		
CG4021	DRSC04439	-0.14	0.35		
Rpn5	DRSC12367	-3.44	-3.13		
Hil	DRSC05989	0.25	0.11		
Hil	DRSC06395	0.41	0.43		
CG11426	DRSC11658	-0.12	0.27		
Pi3K21B	DRSC00771	0.49	0.56		
wake	DRSC16148	0.33	0.18		
wake	DRSC16149	0.35	0.4		
STUB1	DRSC03282	0.3	-0.03		
crp	DRSC03515	-0.8	-1.05		
CG31419	DRSC15771	0.14	0.23		
CG6602	DRSC10673	0.39	0.44		
Vps45	DRSC16398	0.2	0.57		
Tbc1d8-9	DRSC11820	0.23	0.25		
CG2641	DRSC15441	0.06	-0.1		
CG34012	DRSC09089	-0.35	-0.24		
CG3631	DRSC15503	0.41	0.51		
tws	DRSC12767	0.22	0.42		
tws	DRSC17092	-0.02	0		
CG12325	DRSC06130	0.09	0.1		
ytr	DRSC04306	0.29	0.28		
ytr	DRSC22073	0.6	-0.39		
Hacd2	DRSC03181	0.8	0.39		
beag	DRSC15296	0.16	0.34		
Hap40	DRSC20085	0.25	0.38		
Mst84Dc	DRSC12599	-0.22	0.17		
srl	DRSC12340	0.31	0.48		
CG42820	DRSC02265	0.79	0.53		
smal	DRSC02318	0.46	0.38	0.25	0.41
smal	DRSC02319	-0.13	0.17		
smal	DRSC02320	0.03	0.25		
smal	DRSC02504	0.13	0.3		
smal	DRSC22866	3.05	3.44		
CG4955	DRSC19927	0.26	0.48		
ZIPIC	DRSC16349	0.05	0.12		
Tmf	DRSC18368	0.14	0.26		
CG13036 (retired record)	DRSC09916	0.24	0.09		
Rab9Fb	DRSC19854	0.34	0		
CG8773	DRSC16444	0.03	0.38		
CG42674	DRSC10066	-1.58	-1.18		
CG42674	DRSC10067	0.45	0.52		
CG42674	DRSC10811	0.34	0.33		
Mabi	DRSC02489	0.01	0.28	-0.15	0.17
uzip	DRSC04722	0.23	-0.07		
CG31908	DRSC21864	0.15	-0.36		
Bap170	DRSC04964	0.06	0.07		
Bap170	DRSC21826	0.02	0.91		
rad50	DRSC04523	0.23	0.18		
CG6567	DRSC16066	0.28	0.63		
cpa	DRSC04080	-0.51	-0.24		
CG18335	DRSC06723	0.14	0.17		
snoRNA:Me28S-C3227a + snoRNA:Me18S-A1061 + snoRNA:Me28S-C3227b + 7 more	DRSC05497	0.46	-7.39	0.29	-8.37
CG15394	DRSC00408	0.07	0.12		
